No constants are given. Whether binding was seen depends on the method and setting. In cells and extracts the contact can be indirect. These calls come from enrichment with a bait or labelling near it, and not all partners need be listed. Sequences can lack the tags named with a protein.
T1: MET18-3Flag (Arabidopsis) (UniProt Q0WVF8)
T1 sequence: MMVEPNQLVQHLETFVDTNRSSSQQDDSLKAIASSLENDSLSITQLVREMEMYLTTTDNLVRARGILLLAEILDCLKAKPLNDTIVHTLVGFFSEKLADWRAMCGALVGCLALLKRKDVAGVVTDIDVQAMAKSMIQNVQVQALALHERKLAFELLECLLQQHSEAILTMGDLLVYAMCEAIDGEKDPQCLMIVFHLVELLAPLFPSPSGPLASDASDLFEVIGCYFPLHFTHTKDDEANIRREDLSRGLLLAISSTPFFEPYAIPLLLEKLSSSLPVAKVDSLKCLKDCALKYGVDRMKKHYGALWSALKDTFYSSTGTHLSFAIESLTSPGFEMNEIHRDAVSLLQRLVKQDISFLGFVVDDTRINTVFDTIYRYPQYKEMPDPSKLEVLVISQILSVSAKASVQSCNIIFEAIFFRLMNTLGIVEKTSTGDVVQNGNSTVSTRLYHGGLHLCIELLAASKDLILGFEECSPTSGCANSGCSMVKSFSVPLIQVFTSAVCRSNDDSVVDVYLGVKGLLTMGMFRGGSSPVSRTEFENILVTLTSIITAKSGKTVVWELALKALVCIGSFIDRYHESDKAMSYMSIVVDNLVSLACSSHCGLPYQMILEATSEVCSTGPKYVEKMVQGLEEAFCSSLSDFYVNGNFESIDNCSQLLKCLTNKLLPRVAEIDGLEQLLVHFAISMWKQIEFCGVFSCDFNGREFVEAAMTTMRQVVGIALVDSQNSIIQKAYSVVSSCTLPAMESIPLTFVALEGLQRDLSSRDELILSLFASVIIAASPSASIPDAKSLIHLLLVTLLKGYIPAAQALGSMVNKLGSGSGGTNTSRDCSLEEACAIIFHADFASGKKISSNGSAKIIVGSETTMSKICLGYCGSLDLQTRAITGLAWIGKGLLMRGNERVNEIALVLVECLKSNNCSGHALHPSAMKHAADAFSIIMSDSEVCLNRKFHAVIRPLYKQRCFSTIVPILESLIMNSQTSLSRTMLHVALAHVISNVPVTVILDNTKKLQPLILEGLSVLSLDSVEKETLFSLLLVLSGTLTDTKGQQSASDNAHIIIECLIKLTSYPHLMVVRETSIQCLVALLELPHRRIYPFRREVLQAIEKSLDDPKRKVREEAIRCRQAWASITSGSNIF

Protein sequences, listed by entry. Tags and fused reporters are not part of them.
UniProt Q8LK56: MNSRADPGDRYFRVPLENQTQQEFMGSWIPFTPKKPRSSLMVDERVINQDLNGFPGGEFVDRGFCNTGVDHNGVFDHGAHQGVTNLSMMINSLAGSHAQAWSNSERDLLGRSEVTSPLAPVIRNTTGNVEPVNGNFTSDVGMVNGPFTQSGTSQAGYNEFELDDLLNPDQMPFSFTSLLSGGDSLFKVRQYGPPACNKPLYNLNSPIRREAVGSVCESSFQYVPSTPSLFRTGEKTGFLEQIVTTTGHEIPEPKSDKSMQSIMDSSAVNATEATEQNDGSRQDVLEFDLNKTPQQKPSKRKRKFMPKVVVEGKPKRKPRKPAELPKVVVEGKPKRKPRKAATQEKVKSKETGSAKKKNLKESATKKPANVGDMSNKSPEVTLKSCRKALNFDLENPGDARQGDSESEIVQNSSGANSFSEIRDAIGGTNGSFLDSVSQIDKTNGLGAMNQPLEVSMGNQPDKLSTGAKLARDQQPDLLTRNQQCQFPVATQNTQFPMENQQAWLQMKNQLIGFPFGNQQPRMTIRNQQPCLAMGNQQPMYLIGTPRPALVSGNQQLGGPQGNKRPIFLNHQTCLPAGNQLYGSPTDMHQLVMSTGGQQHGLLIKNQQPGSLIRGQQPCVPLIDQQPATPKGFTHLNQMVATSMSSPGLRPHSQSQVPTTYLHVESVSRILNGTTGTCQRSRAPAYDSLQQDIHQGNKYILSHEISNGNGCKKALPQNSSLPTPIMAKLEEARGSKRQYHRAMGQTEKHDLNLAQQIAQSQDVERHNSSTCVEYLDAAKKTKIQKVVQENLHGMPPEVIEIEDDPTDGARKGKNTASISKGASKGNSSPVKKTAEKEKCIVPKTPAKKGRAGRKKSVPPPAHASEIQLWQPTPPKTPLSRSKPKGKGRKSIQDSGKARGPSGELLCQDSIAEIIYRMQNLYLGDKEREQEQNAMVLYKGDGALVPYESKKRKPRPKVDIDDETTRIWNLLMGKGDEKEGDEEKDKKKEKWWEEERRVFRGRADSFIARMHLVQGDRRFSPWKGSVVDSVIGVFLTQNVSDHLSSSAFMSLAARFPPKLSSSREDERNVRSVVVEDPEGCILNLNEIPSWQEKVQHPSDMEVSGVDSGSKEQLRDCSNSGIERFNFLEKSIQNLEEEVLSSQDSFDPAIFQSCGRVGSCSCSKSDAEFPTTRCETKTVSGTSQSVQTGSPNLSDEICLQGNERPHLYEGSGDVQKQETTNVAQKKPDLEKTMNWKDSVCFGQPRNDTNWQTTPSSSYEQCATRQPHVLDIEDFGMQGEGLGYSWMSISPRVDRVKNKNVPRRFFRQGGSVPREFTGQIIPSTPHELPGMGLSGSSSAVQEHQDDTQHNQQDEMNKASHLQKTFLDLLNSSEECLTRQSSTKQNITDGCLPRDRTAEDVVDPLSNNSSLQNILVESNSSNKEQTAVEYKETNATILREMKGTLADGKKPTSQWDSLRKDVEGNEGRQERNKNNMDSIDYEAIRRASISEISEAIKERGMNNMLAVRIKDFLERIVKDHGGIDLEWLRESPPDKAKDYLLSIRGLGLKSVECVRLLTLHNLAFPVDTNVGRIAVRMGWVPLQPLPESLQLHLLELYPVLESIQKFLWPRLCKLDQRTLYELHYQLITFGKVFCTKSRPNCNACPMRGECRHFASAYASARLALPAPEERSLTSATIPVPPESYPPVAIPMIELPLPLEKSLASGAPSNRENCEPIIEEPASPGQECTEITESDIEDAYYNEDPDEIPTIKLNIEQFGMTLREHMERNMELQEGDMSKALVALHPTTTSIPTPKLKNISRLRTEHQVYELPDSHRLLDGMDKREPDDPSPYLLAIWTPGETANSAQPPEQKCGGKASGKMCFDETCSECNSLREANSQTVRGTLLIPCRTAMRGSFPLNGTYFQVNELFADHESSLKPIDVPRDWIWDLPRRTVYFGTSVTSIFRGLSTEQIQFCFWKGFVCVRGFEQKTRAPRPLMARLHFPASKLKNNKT


These molecules were tested against T1, MET18-3Flag (Arabidopsis) (assay: affinity purification with mass spectrometry; MET18-3Flag from flower tissue lysate of transgenic plants held on anti-Flag M2 magnetic beads, 3 h at 4 °C; lysis buffer 50 mM Tris pH 8.0, 230 mM NaCl, 5 mM MgCl2, 10% glycerol, 0.2% NP-40; eluted with Flag peptides; SDS-PAGE, in-gel trypsin digestion).

Row | Molecule | binding
1 | AtDRE2 | binds
2 | ICU2 | binds
3 | DEMETER (DME) (from UniProt Q8LK56 1-1987) | binds
4 | CIA1 (protein, UniProt O80990 1-352) MDLMEKNLELVEIQKLEGHTDRVWSVAWNPVSSHADGVSPILASCSGDNTVRIWEQSSLSRSWTCKTVLEETHTRTVRSCAWSPSGQLLATASFDGTTGIWKNYGSEFECISTLEGHENEVKSVSWNASGSCLATCSRDKSVWIWEVLEGNEYDCAAVLTGHTQDVKMVQWHPTMDVLFSCSYDNTIKVWWSEDDDGEYQCVQTLGESNNGHSSTVWSISFNAAGDKMVTCSDDLTLKIWGTDIAKMQSGEEYAPWIHLCTLSGYHDRTIYSAHWSRDDIIASGAGDNAIRLFVDSKHDSVDGPSYNLLLKKNKAHENDVNSVQWSPGEGNRLLASASDDGMVKIWQLATKP | binds
5 | CIA2/AE7 (protein, UniProt Q9C9G6 1-157) MVSGLINENPIIYPKKERRLRTDTSITDELTPEPIDQLEIFDHIRDIKDPEHPNTLEDLRVVTEDSVEVDDENSYVRVTFTPTVEHCSMATVIGLCVRVKLLRSLPSRYKIDIRVAPGSHATEDALNKQLNDKERVAAALENPNLVEMVDECLPSEE | binds
6 | NAR1 (protein, UniProt Q94CL6 1-474) MSEKFSPTLRLGDLNDFIAPSQACVISLKDSKPIVKKSDRPQVVIAPKQQLEPVKISLKDCLACSGCITSAETVMLEKQSLDEFLSALSKGKDVVVSVSPQSRASLAVHYDISPLQVFKKLTTFLKSLGVKAVFDTSCSRDLVLIESCNEFVSRYKQANSDDGENSQSPLPVLSSACPGWICYAEKQLGSYVLPYVSSVKSPQQAIGAAIKHHLCQALGLRLHEVYHVTVMPCYDKKLEAARDDFVFDDGTQDNGDLKLTEVDSVLTTGEIMDLIKLKGVDFKDLEESPLDRVLTNVTEEGDLYGVAGSSGGYAETIFRHAAKALFGQTIEGPLEFKTLRNSDFREVTLQLEGKTVLKFALCYGFQNLQNIVRRVKTRKCDYQYVEIMACPAGCLNGGGQIKPKTGQSQKELIHSLEATYMNDTTLNTDPYQNPTAKRLFEEWLKEPGSNEAKKYLHTQYHPVVKSVTSQLNNW | binds
7 | REPRESSOR OF …1 (ROS1), endogenous (protein, UniProt Q9SJQ6 1-1393) MEKQRREESSFQQPPWIPQTPMKPFSPICPYTVEDQYHSSQLEERRFVGNKDMSGLDHLSFGDLLALANTASLIFSGQTPIPTRNTEVMQKGTEEVESLSSVSNNVAEQILKTPEKPKRKKHRPKVRREAKPKREPKPRAPRKSVVTDGQESKTPKRKYVRKKVEVSKDQDATPVESSAAVETSTRPKRLCRRVLDFEAENGENQTNGDIREAGEMESALQEKQLDSGNQELKDCLLSAPSTPKRKRSQGKRKGVQPKKNGSNLEEVDISMAQAAKRRQGPTCCDMNLSGIQYDEQCDYQKMHWLYSPNLQQGGMRYDAICSKVFSGQQHNYVSAFHATCYSSTSQLSANRVLTVEERREGIFQGRQESELNVLSDKIDTPIKKKTTGHARFRNLSSMNKLVEVPEHLTSGYCSKPQQNNKILVDTRVTVSKKKPTKSEKSQTKQKNLLPNLCRFPPSFTGLSPDELWKRRNSIETISELLRLLDINREHSETALVPYTMNSQIVLFGGGAGAIVPVTPVKKPRPRPKVDLDDETDRVWKLLLENINSEGVDGSDEQKAKWWEEERNVFRGRADSFIARMHLVQGDRRFTPWKGSVVDSVVGVFLTQNVSDHLSSSAFMSLASQFPVPFVPSSNFDAGTSSMPSIQITYLDSEETMSSPPDHNHSSVTLKNTQPDEEKDYVPSNETSRSSSEIAISAHESVDKTTDSKEYVDSDRKGSSVEVDKTDEKCRVLNLFPSEDSALTCQHSMVSDAPQNTERAGSSSEIDLEGEYRTSFMKLLQGVQVSLEDSNQVSPNMSPGDCSSEIKGFQSMKEPTKSSVDSSEPGCCSQQDGDVLSCQKPTLKEKGKKVLKEEKKAFDWDCLRREAQARAGIREKTRSTMDTVDWKAIRAADVKEVAETIKSRGMNHKLAERIQGFLDRLVNDHGSIDLEWLRDVPPDKAKEYLLSFNGLGLKSVECVRLLTLHHLAFPVDTNVGRIAVRLGWVPLQPLPESLQLHLLEMYPMLESIQKYLWPRLCKLDQKTLYELHYQMITFGKVFCTKSKPNCNACPMKGECRHFASAFASARLALPSTEKGMGTPDKNPLPLHLPEPFQREQGSEVVQHSEPAKKVTCCEPIIEEPASPEPETAEVSIADIEEAFFEDPEEIPTIRLNMDAFTSNLKKIMEHNKELQDGNMSSALVALTAETASLPMPKLKNISQLRTEHRVYELPDEHPLLAQLEKREPDDPCSYLLAIWTPGETADSIQPSVSTCIFQANGMLCDEETCFSCNSIKETRSQIVRGTILIPCRTAMRGSFPLNGTYFQVNEVFADHASSLNPINVPRELIWELPRRTVYFGTSVPTIFKGLSTEKIQACFWKGYVCVRGFDRKTRGPKPLIARLHFPASKLKGQQANLA | binds
8 | ACO1 (protein, UniProt Q42560 1-898) MASENPFRSILKALEKPDGGEFGNYYSLPALNDPRIDKLPYSIRILLESAIRNCDEFQVKSKDVEKILDWENTSPKQVEIPFKPARVLLQDFTGVPAVVDLACMRDAMNNLGGDSNKINPLVPVDLVIDHSVQVDVARSENAVQANMELEFQRNKERFAFLKWGSNAFHNMLVVPPGSGIVHQVNLEYLARVVFNTNGLLYPDSVVGTDSHTTMIDGLGVAGWGVGGIEAEATMLGQPMSMVLPGVVGFKLTGKLRDGMTATDLVLTVTQMLRKHGVVGKFVEFHGEGMRELSLADRATIANMSPEYGATMGFFPVDHVTLQYLRLTGRSDDTVSMIEAYLRANKMFVDYSEPESKTVYSSCLELNLEDVEPCVSGPKRPHDRVPLKEMKADWHSCLDNRVGFKGFAVPKEAQSKAVEFNFNGTTAQLRHGDVVIAAITSCTNTSNPSVMLGAALVAKKACDLGLEVKPWIKTSLAPGSGVVTKYLAKSGLQKYLNQLGFSIVGYGCTTCIGNSGDIHEAVASAIVDNDLVASAVLSGNRNFEGRVHPLTRANYLASPPLVVAYALAGTVDIDFETQPIGTGKDGKQIFFRDIWPSNKEVAEVVQSSVLPDMFKATYEAITKGNSMWNQLSVASGTLYEWDPKSTYIHEPPYFKGMTMSPPGPHGVKDAYCLLNFGDSITTDHISPAGSIHKDSPAAKYLMERGVDRRDFNSYGSRRGNDEIMARGTFANIRIVNKHLKGEVGPKTVHIPTGEKLSVFDAAMKYRNEGRDTIILAGAEYGSGSSRDWAAKGPMLLGVKAVISKSFERIHRSNLVGMGIIPLCFKAGEDAETLGLTGQELYTIELPNNVSEIKPGQDVTVVTNNGKSFTCTLRFDTEVELAYFDHGGILQYVIRNLIKQ | binds
9 | DNA polymerase subunit AT5G63960 (protein, UniProt Q9LVN7 1-1095) MNRSGISKKRPPPSNTPPPAGKHRATGDSTPSPAIGTLDDEFMMEEDVFLDETLLYGDEDEESLILRDIEERESRSSAWARPPLSPAYLSNSQSIIFQQLEIDSIIAESHKELLPGSSGQAPIIRMFGVTREGNSVCCFVHGFEPYFYIACPPGMGPDDISNFHQSLEGRMRESNKNAKVPKFVKRIEMVQKRSIMYYQQQKSQTFLKITVALPTMVASCRGILDRGLQIDGLGMKSFQTYESNILFVLRFMVDCDIVGGNWIEVPTGKYKKNARTLSYCQLEFHCLYSDLISHAAEGEYSKMAPFRVLSFDIECAGRKGHFPEAKHDPVIQIANLVTLQGEDHPFVRNVMTLKSCAPIVGVDVMSFETEREVLLAWRDLIRDVDPDIIIGYNICKFDLPYLIERAATLGIEEFPLLGRVKNSRVRVRDSTFSSRQQGIRESKETTIEGRFQFDLIQAIHRDHKLSSYSLNSVSAHFLSEQKEDVHHSIITDLQNGNAETRRRLAVYCLKDAYLPQRLLDKLMFIYNYVEMARVTGVPISFLLARGQSIKVLSQLLRKGKQKNLVLPNAKQSGSEQGTYEGATVLEARTGFYEKPIATLDFASLYPSIMMAYNLCYCTLVTPEDVRKLNLPPEHVTKTPSGETFVKQTLQKGILPEILEELLTARKRAKADLKEAKDPLEKAVLDGRQLALKISANSVYGFTGATVGQLPCLEISSSVTSYGRQMIEQTKKLVEDKFTTLGGYQYNAEVIYGDTDSVMVQFGVSDVEAAMTLGREAAEHISGTFIKPIKLEFEKVYFPYLLINKKRYAGLLWTNPQQFDKMDTKGIETVRRDNCLLVKNLVTESLNKILIDRDVPGAAENVKKTISDLLMNRIDLSLLVITKGLTKTGDDYEVKSAHGELAERMRKRDAATAPNVGDRVPYVIIKAAKGAKAYERSEDPIYVLQNNIPIDPNYYLENQISKPLLRIFEPVLKNASKELLHGSHTRSISITTPSNSGIMKFAKKQLSCVGCKVPISNGTLCASCKGREAELYCKNVSQVAELEEVFGRLWTQCQECQGSLHQDVLCTSRDCPIFYRRMKAQKDMAVARQQLDRWSF | binds
